# Results as given in the supplement of paper PMC11732987, “Enantioselective OTUD7B fragment discovery through chemoproteomics screening and high-throughput optimisation” (Communications Chemistry, 2025).
# The chains behind the UniProt entries cited, without tags or fusion partners. Where a name states a change or a piece, a line headed by the entry shows the natural chain unless it says otherwise. Residues count along the entry.
# UniProt O95155, 141-164: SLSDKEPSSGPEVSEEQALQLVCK
# UniProt Q9Y4A5, whole entry, looked up: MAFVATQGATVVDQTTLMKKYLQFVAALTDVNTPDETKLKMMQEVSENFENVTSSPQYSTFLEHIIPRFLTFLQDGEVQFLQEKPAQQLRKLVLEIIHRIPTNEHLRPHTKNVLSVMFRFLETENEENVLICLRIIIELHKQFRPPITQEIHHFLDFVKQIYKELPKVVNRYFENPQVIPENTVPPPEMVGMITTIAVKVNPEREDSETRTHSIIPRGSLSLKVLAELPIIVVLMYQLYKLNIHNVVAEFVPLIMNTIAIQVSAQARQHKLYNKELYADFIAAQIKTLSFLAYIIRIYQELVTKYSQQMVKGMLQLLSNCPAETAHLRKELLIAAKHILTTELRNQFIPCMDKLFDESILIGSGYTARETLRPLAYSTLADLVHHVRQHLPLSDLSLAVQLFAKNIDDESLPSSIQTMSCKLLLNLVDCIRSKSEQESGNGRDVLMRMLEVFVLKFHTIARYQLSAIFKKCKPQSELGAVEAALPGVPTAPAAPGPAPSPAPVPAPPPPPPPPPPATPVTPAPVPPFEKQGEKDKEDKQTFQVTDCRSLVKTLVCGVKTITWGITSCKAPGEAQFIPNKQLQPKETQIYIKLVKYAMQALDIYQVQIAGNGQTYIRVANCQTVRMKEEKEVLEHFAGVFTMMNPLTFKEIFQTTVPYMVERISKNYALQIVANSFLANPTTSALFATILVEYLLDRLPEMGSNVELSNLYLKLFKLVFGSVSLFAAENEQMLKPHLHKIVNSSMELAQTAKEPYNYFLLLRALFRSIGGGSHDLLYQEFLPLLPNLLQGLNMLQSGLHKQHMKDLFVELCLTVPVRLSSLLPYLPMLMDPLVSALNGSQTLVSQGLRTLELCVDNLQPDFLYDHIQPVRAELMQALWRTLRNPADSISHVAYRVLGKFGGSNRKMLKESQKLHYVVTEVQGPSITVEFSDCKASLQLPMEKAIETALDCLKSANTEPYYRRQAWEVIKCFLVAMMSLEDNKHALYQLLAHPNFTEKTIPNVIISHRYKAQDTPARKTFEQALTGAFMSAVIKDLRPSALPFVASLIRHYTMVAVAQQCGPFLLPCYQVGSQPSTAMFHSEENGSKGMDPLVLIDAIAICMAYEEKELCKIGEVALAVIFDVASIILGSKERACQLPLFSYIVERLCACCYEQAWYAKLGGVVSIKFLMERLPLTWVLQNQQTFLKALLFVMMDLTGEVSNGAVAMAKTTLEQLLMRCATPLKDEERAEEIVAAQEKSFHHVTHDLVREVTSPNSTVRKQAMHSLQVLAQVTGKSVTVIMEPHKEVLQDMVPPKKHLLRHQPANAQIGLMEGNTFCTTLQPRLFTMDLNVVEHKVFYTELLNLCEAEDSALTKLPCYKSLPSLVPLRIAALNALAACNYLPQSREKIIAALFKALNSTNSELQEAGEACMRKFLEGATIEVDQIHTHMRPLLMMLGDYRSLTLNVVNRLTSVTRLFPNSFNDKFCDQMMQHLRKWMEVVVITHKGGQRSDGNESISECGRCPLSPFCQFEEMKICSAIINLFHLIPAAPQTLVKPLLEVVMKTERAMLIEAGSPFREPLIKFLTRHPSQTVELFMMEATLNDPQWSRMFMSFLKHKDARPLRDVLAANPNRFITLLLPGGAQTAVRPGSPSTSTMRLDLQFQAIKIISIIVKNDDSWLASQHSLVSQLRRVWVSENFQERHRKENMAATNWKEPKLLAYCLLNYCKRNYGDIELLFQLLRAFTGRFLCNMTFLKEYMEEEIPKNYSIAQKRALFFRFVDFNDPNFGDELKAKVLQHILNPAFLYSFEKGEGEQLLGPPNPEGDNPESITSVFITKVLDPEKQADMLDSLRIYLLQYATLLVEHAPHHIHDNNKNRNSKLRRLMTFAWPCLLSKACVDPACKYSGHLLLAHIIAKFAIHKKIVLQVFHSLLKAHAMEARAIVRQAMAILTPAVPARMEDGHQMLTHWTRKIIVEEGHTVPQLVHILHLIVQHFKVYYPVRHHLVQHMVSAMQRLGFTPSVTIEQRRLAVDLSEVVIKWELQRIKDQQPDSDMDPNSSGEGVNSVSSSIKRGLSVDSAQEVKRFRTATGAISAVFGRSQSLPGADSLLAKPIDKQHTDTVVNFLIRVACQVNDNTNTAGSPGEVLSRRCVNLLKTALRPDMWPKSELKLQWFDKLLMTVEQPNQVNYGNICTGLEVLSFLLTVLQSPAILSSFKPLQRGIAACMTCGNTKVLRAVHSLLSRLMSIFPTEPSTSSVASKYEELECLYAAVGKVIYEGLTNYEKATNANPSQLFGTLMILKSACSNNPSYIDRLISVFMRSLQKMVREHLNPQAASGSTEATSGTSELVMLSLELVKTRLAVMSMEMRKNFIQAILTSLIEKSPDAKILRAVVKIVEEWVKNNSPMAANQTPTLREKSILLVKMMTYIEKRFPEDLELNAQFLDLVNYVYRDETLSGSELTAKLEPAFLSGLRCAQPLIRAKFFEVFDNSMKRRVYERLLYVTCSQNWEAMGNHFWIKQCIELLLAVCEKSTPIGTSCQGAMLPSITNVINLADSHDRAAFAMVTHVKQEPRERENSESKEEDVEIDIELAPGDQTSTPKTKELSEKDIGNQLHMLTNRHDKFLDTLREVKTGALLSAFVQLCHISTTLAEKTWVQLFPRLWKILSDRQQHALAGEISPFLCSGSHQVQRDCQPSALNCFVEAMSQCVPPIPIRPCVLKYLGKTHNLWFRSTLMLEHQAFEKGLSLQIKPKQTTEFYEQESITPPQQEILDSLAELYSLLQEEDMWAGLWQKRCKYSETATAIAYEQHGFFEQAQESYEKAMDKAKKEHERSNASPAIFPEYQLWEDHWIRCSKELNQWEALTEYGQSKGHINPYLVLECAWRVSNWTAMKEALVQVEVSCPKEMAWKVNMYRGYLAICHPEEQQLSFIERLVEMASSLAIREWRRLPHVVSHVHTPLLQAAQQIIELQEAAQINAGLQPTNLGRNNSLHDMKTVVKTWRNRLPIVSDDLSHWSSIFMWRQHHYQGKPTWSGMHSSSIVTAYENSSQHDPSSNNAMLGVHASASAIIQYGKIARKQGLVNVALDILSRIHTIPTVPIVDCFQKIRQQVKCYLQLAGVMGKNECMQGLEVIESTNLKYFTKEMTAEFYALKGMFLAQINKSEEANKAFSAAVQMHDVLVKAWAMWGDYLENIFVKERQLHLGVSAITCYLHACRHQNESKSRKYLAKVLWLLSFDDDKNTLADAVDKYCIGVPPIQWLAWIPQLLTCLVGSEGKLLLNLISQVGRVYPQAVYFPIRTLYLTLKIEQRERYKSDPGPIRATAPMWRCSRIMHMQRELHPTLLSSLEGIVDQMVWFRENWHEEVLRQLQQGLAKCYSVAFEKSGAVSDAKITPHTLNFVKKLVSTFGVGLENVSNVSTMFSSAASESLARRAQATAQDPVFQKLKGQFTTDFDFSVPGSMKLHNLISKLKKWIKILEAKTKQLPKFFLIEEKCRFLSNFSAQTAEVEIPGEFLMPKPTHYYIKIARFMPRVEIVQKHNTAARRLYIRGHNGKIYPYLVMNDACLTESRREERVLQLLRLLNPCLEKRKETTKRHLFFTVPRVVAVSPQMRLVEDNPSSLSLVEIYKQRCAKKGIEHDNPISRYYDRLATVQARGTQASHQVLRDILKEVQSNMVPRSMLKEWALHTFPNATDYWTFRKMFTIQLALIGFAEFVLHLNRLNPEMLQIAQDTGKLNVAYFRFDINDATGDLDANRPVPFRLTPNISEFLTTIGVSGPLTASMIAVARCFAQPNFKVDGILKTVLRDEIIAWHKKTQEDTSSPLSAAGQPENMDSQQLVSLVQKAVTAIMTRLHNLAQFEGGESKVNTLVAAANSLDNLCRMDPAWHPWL
# UniProt Q9Y4A5, 2104-2124: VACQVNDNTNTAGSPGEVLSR
# UniProt Q9UJT1: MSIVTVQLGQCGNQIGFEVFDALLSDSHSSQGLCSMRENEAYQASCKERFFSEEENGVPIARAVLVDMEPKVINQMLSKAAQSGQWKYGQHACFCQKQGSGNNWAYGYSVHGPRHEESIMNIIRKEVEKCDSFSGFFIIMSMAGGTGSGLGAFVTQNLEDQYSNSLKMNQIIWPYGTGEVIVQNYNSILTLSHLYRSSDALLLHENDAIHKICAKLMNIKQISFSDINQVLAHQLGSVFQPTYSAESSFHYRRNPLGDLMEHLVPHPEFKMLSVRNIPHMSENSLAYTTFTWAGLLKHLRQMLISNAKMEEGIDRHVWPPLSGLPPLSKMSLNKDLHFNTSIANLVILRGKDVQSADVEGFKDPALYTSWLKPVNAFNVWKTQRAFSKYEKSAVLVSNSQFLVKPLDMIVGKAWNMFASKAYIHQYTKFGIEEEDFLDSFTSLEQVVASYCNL
# UniProt Q9UNY4, 549-575: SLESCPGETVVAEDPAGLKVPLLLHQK
# UniProt Q3KQV9, 286-318: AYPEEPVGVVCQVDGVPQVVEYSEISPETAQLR
# UniProt Q86TV6: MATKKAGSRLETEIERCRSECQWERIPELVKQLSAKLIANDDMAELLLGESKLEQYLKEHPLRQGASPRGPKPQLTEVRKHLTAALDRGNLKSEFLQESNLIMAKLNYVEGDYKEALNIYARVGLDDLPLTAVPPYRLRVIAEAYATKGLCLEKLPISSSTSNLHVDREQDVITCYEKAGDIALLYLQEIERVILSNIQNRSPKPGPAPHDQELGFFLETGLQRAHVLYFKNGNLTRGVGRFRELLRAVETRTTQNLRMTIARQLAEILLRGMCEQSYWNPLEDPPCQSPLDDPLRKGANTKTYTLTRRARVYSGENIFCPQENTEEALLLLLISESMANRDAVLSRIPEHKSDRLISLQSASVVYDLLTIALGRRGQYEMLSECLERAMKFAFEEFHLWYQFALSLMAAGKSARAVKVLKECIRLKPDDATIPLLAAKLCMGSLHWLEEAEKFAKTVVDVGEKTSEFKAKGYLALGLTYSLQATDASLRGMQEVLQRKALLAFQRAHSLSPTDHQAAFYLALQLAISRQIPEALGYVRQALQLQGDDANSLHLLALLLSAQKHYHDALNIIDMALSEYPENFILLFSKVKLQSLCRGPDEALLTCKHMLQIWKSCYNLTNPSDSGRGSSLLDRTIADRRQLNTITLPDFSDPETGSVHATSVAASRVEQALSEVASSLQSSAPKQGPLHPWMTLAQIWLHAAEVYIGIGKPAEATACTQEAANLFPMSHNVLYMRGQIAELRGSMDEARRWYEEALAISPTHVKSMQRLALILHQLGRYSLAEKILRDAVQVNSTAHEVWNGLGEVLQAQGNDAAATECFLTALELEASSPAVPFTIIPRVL
# UniProt Q8N0Z6: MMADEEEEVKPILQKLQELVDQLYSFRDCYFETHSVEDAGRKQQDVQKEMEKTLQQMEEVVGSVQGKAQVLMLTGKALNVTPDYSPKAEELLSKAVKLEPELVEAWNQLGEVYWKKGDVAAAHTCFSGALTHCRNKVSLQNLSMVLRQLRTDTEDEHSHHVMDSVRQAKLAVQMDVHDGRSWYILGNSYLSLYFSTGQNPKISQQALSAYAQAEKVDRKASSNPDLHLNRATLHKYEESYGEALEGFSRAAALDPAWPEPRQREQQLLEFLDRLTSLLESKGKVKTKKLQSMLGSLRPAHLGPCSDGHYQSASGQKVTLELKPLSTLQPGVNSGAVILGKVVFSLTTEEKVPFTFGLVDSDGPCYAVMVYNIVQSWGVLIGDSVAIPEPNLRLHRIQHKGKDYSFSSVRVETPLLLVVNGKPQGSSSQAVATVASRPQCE
# UniProt O95801: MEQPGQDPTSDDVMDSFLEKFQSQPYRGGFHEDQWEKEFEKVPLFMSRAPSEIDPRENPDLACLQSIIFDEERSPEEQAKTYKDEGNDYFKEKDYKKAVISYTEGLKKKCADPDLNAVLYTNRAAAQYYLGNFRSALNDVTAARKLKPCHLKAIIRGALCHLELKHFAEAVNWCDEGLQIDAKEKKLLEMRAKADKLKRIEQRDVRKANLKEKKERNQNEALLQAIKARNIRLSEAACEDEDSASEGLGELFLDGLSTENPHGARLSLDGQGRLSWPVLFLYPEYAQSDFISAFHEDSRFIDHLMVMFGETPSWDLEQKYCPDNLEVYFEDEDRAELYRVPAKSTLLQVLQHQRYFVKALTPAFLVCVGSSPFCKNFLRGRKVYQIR
# UniProt Q13509, whole entry, looked up: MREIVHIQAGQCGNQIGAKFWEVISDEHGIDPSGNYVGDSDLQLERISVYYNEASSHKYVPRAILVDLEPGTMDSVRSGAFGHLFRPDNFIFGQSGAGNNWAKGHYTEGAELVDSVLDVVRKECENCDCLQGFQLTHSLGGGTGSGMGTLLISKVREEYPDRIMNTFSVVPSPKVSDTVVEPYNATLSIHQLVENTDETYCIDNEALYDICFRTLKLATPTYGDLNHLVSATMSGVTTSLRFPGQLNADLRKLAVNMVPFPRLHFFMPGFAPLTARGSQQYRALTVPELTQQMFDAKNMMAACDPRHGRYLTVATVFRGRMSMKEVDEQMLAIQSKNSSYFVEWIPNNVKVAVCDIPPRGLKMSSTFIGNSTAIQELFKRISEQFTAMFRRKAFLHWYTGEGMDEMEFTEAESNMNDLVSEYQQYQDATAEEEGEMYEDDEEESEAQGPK
# Some of the results follow. The data scatter; read single values as rough.
# Assays:
# [1] = compound: ClCC(=O)N[C@@H]1CCCc2ccccc12; assay: log2 mean competition ratio of IA-DTB cysteine labelling (DMSO/compound) (log2 ratio); higher = stronger cysteine engagement by compound; settings: treatment time: 4 h, cell line lysate: HEK293T
# Experimental: (§1)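 IA-DTB competitive cysteine chemoproteomics in HEK293T RIPA lysate. Lysates were treated with compound 29 or 30 at 50 or 200 µM for 4 h, then IA-DTB (500 µM, 1 h), trypsin-digested, NeutrAvidin-enriched and analysed by diaPASEF. Competition ratio = intensity DMSO / intensity compound (n=4 treated, n=64 DMSO); binding: mean log2 CR ≥ 1 and p ≤ 0.05 plus QC filters. Target is the cysteine site.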
# [2] = compound: ClCC(=O)N[C@H]1CCCc2ccccc12; assay: as above; settings: treatment time: 4 h, cell line lysate: HEK293T
# Experimental: as §1
Target,log2 mean competition ratio ([1]; 50 µM),log2 mean competition ratio ([1]; 200 µM),log2 mean competition ratio ([2]; 50 µM),log2 mean competition ratio ([2]; 200 µM)
UBE4B C163 (UniProt O95155),-0.247,-0.249,0.162,-0.0431
TUBGCP3 C388 (UniProt Q96CW5),–,–,-0.0652,-0.0272
TTC17 C114 (UniProt Q96AE7),–,–,-0.249,0.225
TWNK C77 (UniProt Q96RR1),0.0574,0.139,-0.146,0.113
TRRAP C2449 (UniProt Q9Y4A5),–,–,0.461,0.131
UBA6 C17,-0.234,-0.285,0.512,-0.229
UACA C994 (UniProt Q9BZF9),–,–,-0.108,-0.0434
TSR2 C114 (UniProt Q969E8),–,–,0.48,0.181
UBR4 C122 (UniProt Q5T4S7),–,–,0.243,-0.29
TRMT1 C614 (UniProt Q9NXH9),-0.0414,0.015,-0.216,0.12
TTC30A C454,–,–,-0.365,-0.108
TUBD1 C46 (UniProt Q9UJT1),–,–,-0.0324,0.11
TRRAP C2106 (UniProt Q9Y4A5),0.0508,0.0336,0.0834,-0.0531
TTC28 C2077 (UniProt Q96AY4),–,–,-0.054,-0.351
TXNRD2 C168 (UniProt Q9NNW7),–,–,-0.325,-0.195
TTC31 C107,0.11,0.139,0.128,0.112
TTF2 C37 (UniProt Q9UNY4),-0.113,0.00591,-0.0191,0.166
TTC7A C337 (UniProt Q9ULT0),0.314,-0.0956,0.00511,-0.129
UBE3D C330 (UniProt Q7Z6J8),–,–,0.633,0.124

# 2 entries from above, with tabs:
Target	log2 mean competition ratio ([1]; 50 µM)	log2 mean competition ratio ([1]; 200 µM)	log2 mean competition ratio ([2]; 50 µM)	log2 mean competition ratio ([2]; 200 µM)
TUBGCP3 C388 (UniProt Q96CW5)	–	–	-0.0652	-0.0272
TTC30A C454	–	–	-0.365	-0.108

# Following part.

Target,log2 mean competition ratio ([1]; 50 µM),log2 mean competition ratio ([1]; 200 µM),log2 mean competition ratio ([2]; 50 µM),log2 mean competition ratio ([2]; 200 µM)
TWF2 C275 (UniProt Q6IBS0),–,–,0.255,0.161
TTF2 C553 (UniProt Q9UNY4),–,–,-0.23,-0.195
TRRAP C2876 (UniProt Q9Y4A5),–,–,-0.144,-0.0197
TUT7 C417 (UniProt Q5VYS8),–,–,-0.203,0.28
UAP1L1 C296 (UniProt Q3KQV9),–,–,0.0434,-0.559
TTC9 C67,–,–,0.129,-0.194
UBE2O C101,–,–,-0.114,-0.089
TRRAP C620 (UniProt Q9Y4A5),–,–,0.393,-0.00719
TTC1 C28 (UniProt Q99614),–,–,0.178,-0.0512
UBAC1 C47 (UniProt Q9BSL1),–,–,0.763,-0.433
TTC7B C21 (UniProt Q86TV6),–,–,-0.165,0.12
TTLL4 C829 (UniProt Q14679),–,–,0.102,0.0524
TYK2 C536 (UniProt P29597),–,–,-0.161,0.147
TRMU C222 (UniProt O75648),–,–,-0.182,0.0441
TSEN54 C338 (UniProt Q7Z6J9),–,–,0.454,0.565
TTLL12 C528,–,–,-0.284,-0.2
TSFM C64 (UniProt P43897),–,–,0.11,-0.179
TTC5 C29 (UniProt Q8N0Z6),–,–,-0.651,0.146
TRPT1 C147 (UniProt Q86TN4),–,–,-0.0145,0.0544

Target,log2 mean competition ratio ([1]; 50 µM),log2 mean competition ratio ([1]; 200 µM),log2 mean competition ratio ([2]; 50 µM),log2 mean competition ratio ([2]; 200 µM)
TRNT1 C373 (UniProt Q96Q11),–,–,0.42,0.716
UBAC1 C322 (UniProt Q9BSL1),–,–,-0.146,-0.169
UBE4B C581 (UniProt O95155),–,–,0.421,-0.0604
TUBB4B C354 (UniProt P68371),–,–,0.138,0.153
TXNRD2 C54 (UniProt Q9NNW7),–,–,-0.161,-0.178
TTC1 C178 (UniProt Q99614),–,–,0.18,-0.0731
TTC30A C174,–,–,0.0822,-0.0991
TSC2 C52 (UniProt P49815),–,–,-0.318,0.0182
TRPS1 C587 (UniProt Q9UHF7),–,–,0.17,0.0827
UBR2 C602 (UniProt Q8IWV8),–,–,0.159,-0.166
UBAP1 C81 (UniProt Q9NZ09),–,–,-0.038,0.571
TUT7 C334 (UniProt Q5VYS8),–,–,-0.32,0.382
TTC4 C174 (UniProt O95801),–,–,0.282,0.143
TRMT44 C53 (UniProt Q8IYL2),–,–,-0.108,-0.0455
TSPYL4 C117 (UniProt Q9UJ04),–,–,-0.131,0.279
TRMT2A C486 (UniProt Q8IZ69),–,–,-0.0102,0.143
TUBB3 C354 (UniProt Q13509),–,–,-0.164,0.237
TTC3 C109 (UniProt P53804),–,–,0.0683,-0.000992
